Where a name gives a salt, the structure may show the parent alone. Read-outs that look alike come from different tables or passages of the source.
How the values were obtained:
HCT-8/WT cells = assay: MTS cytotoxicity (drug tolerance) assay; details: cytotoxicity curve
Procedure: (§1) Host cell drug tolerance to specified inhibitors was evaluated by 3-(4,5-dimethylthiazol-2-yl)-5-(3-carboxymethoxyphenyl)-2-(4-sulfophenyl)-2H-tetrazolium (MTS) assay. WT and transgenic host cells were seeded in 96-well plates (10,000 cells/well) and cultured for 24 h, followed by the addition of specified compounds at serially diluted concentrations and continued culture for 41 h. After 3 washes with serum-free medium, MTS solution (Saint-Bio, Shanghai, China) was added into the plates (20 μL/well) and incubated at 37°C for 2 h. Optical density at 490 nm (OD490) was measured using a Synergy LX multi-mode reader (BioTek, Winooski, VT). Drug tolerance was indicated by half-maximal cytotoxic concentrations (TC50 values) calculated by nonlinear regression using 4PL model. Selectivity index (SI) for each compound was determined by the ratio between TC50 and EC50 values (SI = TC50/EC50).

HCT-8/MDR1(PTX) cells = details: for Hill slope (h): cytotoxicity curve, MDR1(PTX) cells
Procedure: as §1
(§2) Surviving cells were allowed to recover in drug-free medium for 3–5 d to near confluence (round 1). The selection/recovery cycle were repeated once (round 2). […] The resulting cell lines after PTX or NTZ selection were designated as WT(PTX), NC(PTX) and MDR1(PTX), or WT(NTZ), NC(NTZ) and MDR1(NTZ), respectively (Tables 1 and S2).

HCT-8/NC(NTZ) cells = assay: MTS cytotoxicity (drug tolerance) assay; details: cytotoxicity curve
Procedure: as §1
(§3) Surviving cells were allowed to recover in drug-free medium for 3–5 d to near confluence (round 1). The selection/recovery cycle were repeated once (round 2). […] Finally, all cells were cultured at the final selection concentrations of PTX or NTZ for ≥7 d, followed by culture in drug-free medium for 14 d. At this time point, cells were used for cytotoxicity and efficacy assays or cryopreserved in a liquid nitrogen tank. The resulting cell lines after PTX or NTZ selection were designated as WT(PTX), NC(PTX) and MDR1(PTX), or WT(NTZ), NC(NTZ) and MDR1(NTZ), respectively (Tables 1 and S2).

HCT-8/MDR1(NTZ) cells = assay: MTS cytotoxicity (drug tolerance) assay; details: for Hill slope (h): cytotoxicity curve, MDR1(NTZ) cells
Procedure: as §1, §2

HCT-8/NC cells = assay: MTS cytotoxicity (drug tolerance) assay; details: cytotoxicity curve
HCT-8/MDR1 cells = assay: MTS cytotoxicity (drug tolerance) assay; details: for Hill slope (h): cytotoxicity curve, MDR1 cells
HCT-8/NC(PTX) cells = assay: MTS cytotoxicity (drug tolerance) assay; details: cytotoxicity curve
Procedure: as §1, §2

HCT-8/WT(PTX) cells = assay: MTS cytotoxicity (drug tolerance) assay; details: cytotoxicity curve
Procedure: as §1, §2

Cryptosporidium parvum = assay: Anti-cryptosporidial efficacy assay (44-h infection/qRT-PCR); details: for Hill slope (h): efficacy curve
HCT-8/WT(NTZ) cells = assay: MTS cytotoxicity (drug tolerance) assay; details: cytotoxicity curve
Procedure: as §1, §3

Compound | Hill slope (h) (HCT-8/WT cells) | Increased tolerance in MDR1(PTX) cells? (HCT-8/MDR1(PTX) cells) | Hill slope (h) (HCT-8/MDR1(PTX) cells) | Hill slope (h) (HCT-8/NC(NTZ) cells) | Increased tolerance in MDR1(NTZ) cells? (HCT-8/MDR1(NTZ) cells) | Hill slope (h) (HCT-8/MDR1(NTZ) cells) | Hill slope (h) (HCT-8/NC cells) | Increased tolerance in MDR1 cells (vs. NC)? (HCT-8/MDR1 cells) | Hill slope (h) (HCT-8/MDR1 cells) | Hill slope (h) (HCT-8/NC(PTX) cells) | Hill slope (h) (HCT-8/WT(PTX) cells) | other results
CC[C@]1(O)C[C@H]2CN(CCc3c([nH]c4ccccc34)[C@@](C(=O)OC)(c3cc4c(cc3OC)N(C=O)[C@H]3[C@@](O)(C(=O)OC)[C@H](OC(C)=O)[C@]5(CC)C=CCN6CC[C@]43[C@@H]65)C2)C1 [Vincristine, Vincristine sulphate] | 1.05 | Yes | 1.10 | 1.09 | No | 1.04 | 1.07 | Yes | 1.24 | – | – | –
COc1cccc2c1C(=O)c1c(O)c3c(c(O)c1C2=O)C[C@@](O)(C(C)=O)C[C@@H]3O[C@H]1C[C@H](N)[C@H](O)[C@H](C)O1 [Daunorubicin, Daunorubicin HCl] | – | Yes | – | – | No | – | – | No | – | – | – | Ratio of TC50 MDR1(NTZ)/NC(NTZ) (HCT-8/MDR1(NTZ) cells): 1.02
COc1cccc2c1C(=O)c1c(O)c3c(c(O)c1C2=O)C[C@@](O)(C(=O)CO)C[C@@H]3O[C@H]1C[C@H](N)[C@H](O)[C@H](C)O1 [Doxorubicin, Doxorubicin HCl] | 1.11 | Yes | 1.16 | 1.09 | No | 1.03 | 1.10 | Yes | – | 1.18 | 1.14 | –
O=C1c2c(O)ccc(O)c2C(=O)c2c(NCCNCCO)ccc(NCCNCCO)c21 [Mitoxantrone, Mitoxantrone 2HCl] | 1.04 | Yes | 1.02 | 1.01 | No | 1.02 | 1.05 | Yes | 1.10 | 1.01 | 1.01 | Ratio of TC50 MDR1(NTZ)/NC(NTZ) (HCT-8/MDR1(NTZ) cells): 1.61; Ratio of SI MDR1(PTX) vs NC (Cryptosporidium parvum): 1.34; Ratio of EC50 MDR1(PTX) vs NC (Cryptosporidium parvum; host cells MDR1(PTX) vs NC): 2.04
Ivermectin | – | – | – | – | – | – | – | – | – | – | – | Hill slope (h) (HCT-8/WT(NTZ) cells): 1.02; Pct change of EC50 (vs NC) (Cryptosporidium parvum; MDR1(PTX) vs NC host cells): 31.6%; Hill slope (h) (Cryptosporidium parvum; MDR1(PTX) host cells): 1.06; Hill slope (h) (Cryptosporidium parvum; NC host cells): 1.09; Hill slope (h), mean values (Cryptosporidium parvum; mean of h of efficacy and cytotoxicity assays (S6 Table), h used in Fig 11B): 1.120
CN(C)C(=O)C(CCN1CCC(O)(c2ccc(Cl)cc2)CC1)(c1ccccc1)c1ccccc1 [Loperamide, Loperamide HCl] | – | No | – | – | No | – | – | No | – | – | – | –
CC(=O)O[C@H]1C(=O)[C@@]2(C)[C@H]([C@H](OC(=O)c3ccccc3)[C@]3(O)C[C@H](OC(=O)[C@H](O)[C@@H](NC(=O)c4ccccc4)c4ccccc4)C(C)=C1C3(C)C)[C@]1(OC(C)=O)CO[C@@H]1C[C@@H]2O [Paclitaxel] | 1.02 | Yes | 1.07 | – | No | 1.06 | 1.05 | Yes | 1.09 | 1.09 | 1.10 | –
CC(=O)Oc1ccccc1C(=O)Nc1ncc([N+](=O)[O-])s1 [Nitazoxanide] | 1.12 | No | 1.03 | 1.02 | Yes | – | 1.07 | No | 1.11 | 1.06 | 1.05 | Increased tolerance in MDR1 cells (vs. NC)? (HCT-8/MDR1 cells; listed as NTZ): no change of tolerance; Pct change of EC50 (vs NC) (Cryptosporidium parvum; MDR1(NTZ) vs NC host cells): -3.6%; Hill slope (h) (Cryptosporidium parvum; MDR1(NTZ) host cells): 1.12
